According to the supplement of paper PMC10849652:
The list shows a part of the results.

Chains of the proteins cited; added tags and fusions are not shown. Lines headed by an entry give the natural chain unless they say otherwise; changes in a name come on top.
UniProt Q05084: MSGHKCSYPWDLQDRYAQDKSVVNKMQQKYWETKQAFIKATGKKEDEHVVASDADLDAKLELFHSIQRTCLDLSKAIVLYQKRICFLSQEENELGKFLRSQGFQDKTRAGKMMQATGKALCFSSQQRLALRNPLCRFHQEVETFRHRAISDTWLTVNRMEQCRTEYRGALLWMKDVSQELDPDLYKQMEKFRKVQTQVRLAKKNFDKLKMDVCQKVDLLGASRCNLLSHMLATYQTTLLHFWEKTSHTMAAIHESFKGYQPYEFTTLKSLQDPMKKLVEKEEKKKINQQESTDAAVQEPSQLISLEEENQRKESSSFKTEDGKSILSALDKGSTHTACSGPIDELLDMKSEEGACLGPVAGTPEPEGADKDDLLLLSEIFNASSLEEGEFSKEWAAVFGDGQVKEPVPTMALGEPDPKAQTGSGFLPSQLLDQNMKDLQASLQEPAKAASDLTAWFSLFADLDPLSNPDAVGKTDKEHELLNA
UniProt Q96ED9: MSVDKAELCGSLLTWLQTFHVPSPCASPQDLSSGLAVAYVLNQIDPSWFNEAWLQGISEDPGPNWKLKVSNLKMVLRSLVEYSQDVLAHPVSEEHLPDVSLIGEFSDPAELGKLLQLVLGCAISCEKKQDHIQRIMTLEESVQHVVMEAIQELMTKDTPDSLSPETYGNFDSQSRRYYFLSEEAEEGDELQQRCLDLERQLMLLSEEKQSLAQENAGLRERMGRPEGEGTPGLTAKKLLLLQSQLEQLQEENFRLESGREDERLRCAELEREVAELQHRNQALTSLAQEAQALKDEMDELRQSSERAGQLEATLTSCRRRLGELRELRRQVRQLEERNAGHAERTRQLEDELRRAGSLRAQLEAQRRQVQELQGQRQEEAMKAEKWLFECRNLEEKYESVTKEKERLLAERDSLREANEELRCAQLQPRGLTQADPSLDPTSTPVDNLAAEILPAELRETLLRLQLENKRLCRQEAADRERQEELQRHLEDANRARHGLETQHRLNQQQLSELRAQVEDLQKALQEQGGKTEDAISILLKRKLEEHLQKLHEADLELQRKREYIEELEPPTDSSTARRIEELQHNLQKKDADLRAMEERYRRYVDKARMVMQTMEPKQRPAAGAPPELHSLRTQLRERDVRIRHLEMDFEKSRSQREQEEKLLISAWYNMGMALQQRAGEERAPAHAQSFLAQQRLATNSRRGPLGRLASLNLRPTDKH
UniProt Q9NSC5: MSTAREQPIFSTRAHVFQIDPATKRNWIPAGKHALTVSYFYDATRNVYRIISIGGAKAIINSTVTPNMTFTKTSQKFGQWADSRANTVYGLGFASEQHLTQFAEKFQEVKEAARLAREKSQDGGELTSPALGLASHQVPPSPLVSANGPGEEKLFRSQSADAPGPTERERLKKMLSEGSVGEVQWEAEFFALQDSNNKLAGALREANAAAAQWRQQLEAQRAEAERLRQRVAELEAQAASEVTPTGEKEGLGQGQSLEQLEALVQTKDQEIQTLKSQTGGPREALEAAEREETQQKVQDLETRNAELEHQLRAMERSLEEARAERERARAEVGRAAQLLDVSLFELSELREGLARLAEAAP
UniProt Q9Y2F5: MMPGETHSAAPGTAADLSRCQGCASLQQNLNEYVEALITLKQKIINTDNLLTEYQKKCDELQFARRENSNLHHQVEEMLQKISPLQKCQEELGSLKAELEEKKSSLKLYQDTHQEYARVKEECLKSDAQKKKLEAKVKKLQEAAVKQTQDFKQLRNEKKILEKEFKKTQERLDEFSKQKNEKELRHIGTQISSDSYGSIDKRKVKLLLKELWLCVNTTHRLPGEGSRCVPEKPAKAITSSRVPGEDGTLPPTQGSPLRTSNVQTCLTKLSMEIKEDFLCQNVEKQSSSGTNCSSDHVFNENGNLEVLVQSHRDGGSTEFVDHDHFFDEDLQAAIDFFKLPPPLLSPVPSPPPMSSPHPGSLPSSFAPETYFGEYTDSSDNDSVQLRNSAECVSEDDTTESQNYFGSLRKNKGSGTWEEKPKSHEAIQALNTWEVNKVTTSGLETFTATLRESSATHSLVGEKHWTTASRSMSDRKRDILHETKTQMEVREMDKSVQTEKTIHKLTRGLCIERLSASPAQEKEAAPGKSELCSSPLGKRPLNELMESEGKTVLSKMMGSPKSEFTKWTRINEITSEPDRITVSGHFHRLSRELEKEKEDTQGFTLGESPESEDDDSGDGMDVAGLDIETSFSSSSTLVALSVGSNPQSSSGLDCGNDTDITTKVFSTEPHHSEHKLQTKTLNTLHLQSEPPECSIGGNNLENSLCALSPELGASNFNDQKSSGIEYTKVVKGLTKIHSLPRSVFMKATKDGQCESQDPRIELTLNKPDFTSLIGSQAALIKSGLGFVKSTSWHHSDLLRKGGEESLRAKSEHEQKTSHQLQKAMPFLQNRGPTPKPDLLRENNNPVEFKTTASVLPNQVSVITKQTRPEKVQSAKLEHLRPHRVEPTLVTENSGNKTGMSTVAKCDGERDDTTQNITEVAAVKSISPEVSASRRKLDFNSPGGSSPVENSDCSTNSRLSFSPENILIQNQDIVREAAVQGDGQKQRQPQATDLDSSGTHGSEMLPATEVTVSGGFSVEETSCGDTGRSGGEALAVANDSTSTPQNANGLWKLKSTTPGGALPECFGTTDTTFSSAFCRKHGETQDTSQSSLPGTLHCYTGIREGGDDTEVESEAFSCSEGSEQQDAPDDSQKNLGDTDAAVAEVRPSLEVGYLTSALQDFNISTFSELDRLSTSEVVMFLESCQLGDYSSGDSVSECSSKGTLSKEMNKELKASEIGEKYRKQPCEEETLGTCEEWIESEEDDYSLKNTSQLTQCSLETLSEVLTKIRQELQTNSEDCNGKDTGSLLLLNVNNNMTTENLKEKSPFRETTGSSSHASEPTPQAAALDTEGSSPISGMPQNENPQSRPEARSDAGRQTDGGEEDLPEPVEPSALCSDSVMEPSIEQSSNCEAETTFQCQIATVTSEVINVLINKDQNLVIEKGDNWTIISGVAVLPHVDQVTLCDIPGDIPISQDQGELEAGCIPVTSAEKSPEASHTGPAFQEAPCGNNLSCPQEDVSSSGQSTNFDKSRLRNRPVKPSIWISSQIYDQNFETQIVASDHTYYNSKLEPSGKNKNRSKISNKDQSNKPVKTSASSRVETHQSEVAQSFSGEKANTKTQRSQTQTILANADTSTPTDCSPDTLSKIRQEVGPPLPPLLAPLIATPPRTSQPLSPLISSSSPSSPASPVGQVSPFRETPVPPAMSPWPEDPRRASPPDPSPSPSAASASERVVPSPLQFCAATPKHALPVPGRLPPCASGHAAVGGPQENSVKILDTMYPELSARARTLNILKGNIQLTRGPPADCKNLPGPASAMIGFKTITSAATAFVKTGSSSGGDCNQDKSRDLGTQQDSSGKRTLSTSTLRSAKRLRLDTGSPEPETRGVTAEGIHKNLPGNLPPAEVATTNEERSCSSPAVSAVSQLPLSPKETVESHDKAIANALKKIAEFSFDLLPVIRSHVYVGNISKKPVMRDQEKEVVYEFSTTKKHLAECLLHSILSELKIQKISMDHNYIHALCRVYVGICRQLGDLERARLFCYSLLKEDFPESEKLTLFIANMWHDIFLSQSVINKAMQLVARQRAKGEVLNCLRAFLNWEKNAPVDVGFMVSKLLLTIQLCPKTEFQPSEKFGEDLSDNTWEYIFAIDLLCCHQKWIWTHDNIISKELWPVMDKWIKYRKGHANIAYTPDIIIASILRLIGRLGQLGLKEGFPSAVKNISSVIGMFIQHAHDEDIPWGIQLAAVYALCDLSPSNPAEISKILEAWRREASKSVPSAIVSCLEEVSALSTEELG
UniProt Q8TB92: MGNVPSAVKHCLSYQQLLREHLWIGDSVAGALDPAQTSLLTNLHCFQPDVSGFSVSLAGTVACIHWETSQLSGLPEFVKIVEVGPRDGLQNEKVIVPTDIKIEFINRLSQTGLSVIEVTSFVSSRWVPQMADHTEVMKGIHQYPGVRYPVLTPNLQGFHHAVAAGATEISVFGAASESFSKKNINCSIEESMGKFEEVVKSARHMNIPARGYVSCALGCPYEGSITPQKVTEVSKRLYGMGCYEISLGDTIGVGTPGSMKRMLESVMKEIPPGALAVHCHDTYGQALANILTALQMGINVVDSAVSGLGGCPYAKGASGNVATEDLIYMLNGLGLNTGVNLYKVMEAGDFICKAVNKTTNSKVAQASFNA
UniProt Q96EW2: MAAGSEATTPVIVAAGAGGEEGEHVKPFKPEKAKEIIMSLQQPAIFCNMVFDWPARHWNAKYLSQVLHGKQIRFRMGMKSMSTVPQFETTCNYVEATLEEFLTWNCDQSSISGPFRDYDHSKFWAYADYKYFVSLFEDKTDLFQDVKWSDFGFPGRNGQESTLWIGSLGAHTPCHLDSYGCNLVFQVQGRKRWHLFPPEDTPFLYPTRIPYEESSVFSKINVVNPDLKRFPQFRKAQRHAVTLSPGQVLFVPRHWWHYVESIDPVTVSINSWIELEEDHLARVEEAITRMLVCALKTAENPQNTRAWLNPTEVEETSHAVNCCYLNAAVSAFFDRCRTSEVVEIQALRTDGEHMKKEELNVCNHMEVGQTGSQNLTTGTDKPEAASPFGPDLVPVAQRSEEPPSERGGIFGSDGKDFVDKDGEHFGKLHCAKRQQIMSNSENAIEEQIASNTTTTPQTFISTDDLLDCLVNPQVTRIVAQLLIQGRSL
UniProt Q9NWT6: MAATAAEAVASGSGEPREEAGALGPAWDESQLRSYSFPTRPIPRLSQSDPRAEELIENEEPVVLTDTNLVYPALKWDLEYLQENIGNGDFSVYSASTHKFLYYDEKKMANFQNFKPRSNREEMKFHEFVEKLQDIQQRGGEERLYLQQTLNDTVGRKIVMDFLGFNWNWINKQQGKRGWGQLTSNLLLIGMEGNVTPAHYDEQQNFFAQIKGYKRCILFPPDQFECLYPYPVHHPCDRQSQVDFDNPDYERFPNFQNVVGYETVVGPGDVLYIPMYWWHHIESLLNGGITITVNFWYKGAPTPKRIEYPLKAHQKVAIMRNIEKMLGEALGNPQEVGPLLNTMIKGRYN
UniProt Q9NWY4: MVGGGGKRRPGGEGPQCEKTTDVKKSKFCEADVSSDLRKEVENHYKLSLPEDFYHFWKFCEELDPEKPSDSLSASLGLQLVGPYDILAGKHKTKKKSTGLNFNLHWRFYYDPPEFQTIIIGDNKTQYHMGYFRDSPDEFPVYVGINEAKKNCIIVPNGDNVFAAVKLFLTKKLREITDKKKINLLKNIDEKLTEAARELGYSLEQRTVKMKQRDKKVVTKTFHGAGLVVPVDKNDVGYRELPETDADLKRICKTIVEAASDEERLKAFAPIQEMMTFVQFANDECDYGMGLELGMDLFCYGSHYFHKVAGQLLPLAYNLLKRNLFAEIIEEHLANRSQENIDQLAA
UniProt P50135: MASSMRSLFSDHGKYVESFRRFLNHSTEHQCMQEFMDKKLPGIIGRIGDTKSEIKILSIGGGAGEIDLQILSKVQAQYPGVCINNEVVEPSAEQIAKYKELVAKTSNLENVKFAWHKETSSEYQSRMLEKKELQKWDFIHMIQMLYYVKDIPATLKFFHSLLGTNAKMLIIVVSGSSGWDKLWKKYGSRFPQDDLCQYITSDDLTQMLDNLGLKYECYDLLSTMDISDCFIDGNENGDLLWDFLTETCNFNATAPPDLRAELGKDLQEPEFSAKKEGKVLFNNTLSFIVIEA
UniProt O75506: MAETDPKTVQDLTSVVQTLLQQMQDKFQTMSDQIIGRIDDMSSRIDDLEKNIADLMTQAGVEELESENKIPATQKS
UniProt Q9UJC3, whole entry, looked up: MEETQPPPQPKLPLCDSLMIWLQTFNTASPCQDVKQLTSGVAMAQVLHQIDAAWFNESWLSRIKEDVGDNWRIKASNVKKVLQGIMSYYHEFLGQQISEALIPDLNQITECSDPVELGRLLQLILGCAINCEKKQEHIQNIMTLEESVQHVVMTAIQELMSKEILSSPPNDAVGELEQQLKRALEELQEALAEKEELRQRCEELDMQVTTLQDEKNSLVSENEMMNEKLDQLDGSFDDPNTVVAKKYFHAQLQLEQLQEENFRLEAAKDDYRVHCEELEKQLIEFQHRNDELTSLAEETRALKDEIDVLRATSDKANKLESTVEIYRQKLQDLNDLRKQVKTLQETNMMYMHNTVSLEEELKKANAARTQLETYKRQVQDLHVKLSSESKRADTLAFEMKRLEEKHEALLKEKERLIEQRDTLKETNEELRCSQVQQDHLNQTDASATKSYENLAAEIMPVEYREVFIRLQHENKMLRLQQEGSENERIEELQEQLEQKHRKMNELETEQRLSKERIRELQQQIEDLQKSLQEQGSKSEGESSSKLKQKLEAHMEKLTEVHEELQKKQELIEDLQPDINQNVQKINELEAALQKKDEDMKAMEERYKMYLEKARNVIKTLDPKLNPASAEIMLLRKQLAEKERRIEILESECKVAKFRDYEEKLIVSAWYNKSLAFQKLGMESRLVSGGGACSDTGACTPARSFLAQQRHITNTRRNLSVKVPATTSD

How the values were obtained:
Experiment in all cases: log2 fold change, soluble protein after heating vs DMSO (PISA); higher = thermal stabilisation; K562 cells, 10 uM, 30 min; active = over 0.2 and 3.5 SD of the protein, either way, in both replicates (recomputed)
[1] = compound: CC1=C(C=C(C=C1)NC(=O)C2=CC(=CC=C2)N(C)C)NC(=O)C3=CC=C(C=C3)O
In short: (§1)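 Quantification of soluble protein used TMTpro 16plex LC-MS/MS, with channel sums equalised. Samples were the supernatant after 21,000xg for 90 min of pooled aliquots from K562 cells (2×10^6 cells/mL) treated with 10 μM compound for 30 min, heated for 3 min over 48°C-58°C, and extracted in PBS with 0.5% NP-40 at 4°C. Values, from duplicates, describe thermal stability against control samples on a log2 fold-change scale.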

[2] = compound: CC1=NC(=CC=C1)C2=C(N=C(N2)C(C)(C)C)C3=CC4=NC=CN=C4C=C3
In short: as §1

Nexturastat A = compound: CCCCN(Cc1ccc(C(=O)NO)cc1)C(=O)Nc1ccccc1 [Nexturastat A]
In short: as §1

givinostat = compound: CCN(CC)Cc1ccc2cc(COC(=O)Nc3ccc(C(=O)NO)cc3)ccc2c1 [givinostat]
In short: as §1

epoxomicin = compound: CC[C@H](C)[C@@H](C(=O)N[C@@H]([C@@H](C)O)C(=O)N[C@@H](CC(C)C)C(=O)[C@]1(CO1)C)NC(=O)[C@H]([C@@H](C)CC)N(C)C(=O)C [epoxomicin]
In short: as §1

[3] = compound: CCn1c(C(=O)N(C2CC2)C2CC2)cc2c3c(ncn3C)c(Nc3cc(C)n(C)n3)nc21
In short: as §1

[4] = compound: CCn1cc(-c2ccnc3[nH]c(-c4cccc(CN(C)C)c4)cc23)c(-c2ccc(NC(=O)N(C)C)cc2)n1
In short: as §1

[5] = compound: CN1C2=C(C3=C1C(=O)N(N=C3)CC4=CC(=CC=C4)N)SC(=C2)S(=O)C
In short: as §1

[6] = compound: CN1CCC(CNc2ccc3ncc(-c4cccc(OC(F)(F)F)c4)n3n2)CC1
In short: as §1

[7] = compound: CCCc1cc(C)[nH]c(=O)c1CNC(=O)c1cc(-c2ccnc(N3CCN(C)CC3)c2)cc2c1cnn2C(C)C
In short: as §1

vemurafenib = compound: CCCS(=O)(=O)Nc1ccc(F)c(C(=O)c2c[nH]c3ncc(-c4ccc(Cl)cc4)cc23)c1F [vemurafenib]
In short: as §1

[8] = compound: CC[C@@H]1C(=O)N(C)c2cnc(Nc3ccc(C(=O)NC4CCN(C)CC4)cc3OC)nc2N1C1CCCC1
In short: as §1

[9] = compound: CN(C)CC(=O)Nc1ccc2[nH]c(=O)c3ccccc3c2c1
In short: as §1

[10] = compound: CC1=CC=C(C=C1)SC2=C3C=C(SC3=CN=C2)C(=O)N
In short: as §1

[11] = compound: CCCS(=O)(=O)Nc1ccc(F)c(C(=O)c2c[nH]c3ncc(Cl)cc23)c1F
In short: as §1

volasertib = compound: CC[C@@H]1C(=O)N(C)c2cnc(Nc3ccc(C(=O)N[C@H]4CC[C@H](N5CCN(CC6CC6)CC5)CC4)cc3OC)nc2N1C(C)C [volasertib]
In short: as §1

barasertib = compound: CCN(CCCOc1ccc2c(Nc3cc(CC(=O)Nc4cccc(F)c4)[nH]n3)ncnc2c1)CCOP(=O)(O)O [barasertib]
In short: as §1

[12] = compound: CC[C@H](C)N1C=C(C2=C(C=C(C=C21)C3=CN=C(C=C3)N4CCNCC4)C(=O)NCC5=C(C=C(NC5=O)C)C)C
In short: as §1

rosiglitazone = compound: CN(CCOC1=CC=C(C=C1)C[C@H]2C(=O)NC(=O)S2)C3=CC=CC=N3 (racemic) [rosiglitazone]
In short: as §1

[13] = compound: CC1=C(C=C(C=C1)NC(=O)C2=CC(=CC=C2)C(C)(C)C#N)NC3=CC4=C(C=C3)N=CN(C4=O)C
In short: as §1

Measured: log2 fold change

ICA1 isoform 2 (UniProt Q05084)
inactive: [1] 0.039 | [2] 0.012 | Nexturastat A 0.024 | givinostat 0.008 | epoxomicin 0.081 | [3] -0.119 | [4] -0.137 | [5] 0.182 | [6] 0.127

HMBS (UniProt F5H0P4)
inactive: [7] 0.148

HOMER2 (UniProt Q9NSB8)
inactive: Nexturastat A 0.107 | vemurafenib -0.255 | [7] -0.011 | [8] 0.047 | epoxomicin -0.022 | [9] -0.093

HOOK2 (UniProt Q96ED9)
inactive: [10] 0.022 | [2] 0.018 | Nexturastat A -0.147 | [11] -0.098 | [8] -0.003 | volasertib -0.004 | epoxomicin 0.076

HIST2H2AA3 (UniProt Q6FI13)
inactive: [1] -0.032 | [2] -0.065 | Nexturastat A 0.989 | vemurafenib -0.292 | [7] 0.194 | givinostat 0.234 | barasertib -0.32 | [8] -0.102 | [12] 0.007 | epoxomicin 0.153 | [3] 0.096 | [4] 0.193 | [9] -0.338 | rosiglitazone -0.23 | [5] 0.073 | [6] 0.073

HOMER3 (UniProt Q9NSC5)
inactive: [13] -0.162 | [7] -0.123 | givinostat -0.048 | [3] -0.113

ICE1 (UniProt Q9Y2F5)
inactive: [13] -0.142 | [2] -0.112 | Nexturastat A -0.029 | [7] -0.058 | barasertib 0.043 | [12] -0.142 | epoxomicin -0.064 | rosiglitazone 0.018

HPS4 isoform 4 (UniProt Q9NQG7)
inactive: [1] 0.302 | [2] 0.047 | givinostat -0.027 | [12] -0.069 | [3] 0.02 | [4] 0.182 | [5] -0.056 | [6] -0.043

HMGCLL1 (UniProt Q8TB92)
inactive: [13] -0.033 | [2] -0.02 | Nexturastat A -0.101 | vemurafenib 0.029 | [7] -0.019 | givinostat -0.015 | barasertib -0.035 | [8] 0.018 | [12] 0 | epoxomicin 0.072 | [3] 0.013 | [4] 0.05 | [9] -0.025 | rosiglitazone -0.009 | [5] -0.164 | [6] -0.009

ICOSLG isoform 2 (UniProt O75144)
inactive: [10] 0.192 | vemurafenib 0.397 | [11] -0.084 | [7] -0.243 | givinostat -0.153 | barasertib 0.135 | volasertib 0.082 | [3] -0.224 | [9] 0.039 | rosiglitazone 0.011

HSP90AB4P (UniProt Q58FF6)
inactive: [13] -0.043 | [2] 0.054 | Nexturastat A -0.014 | [7] 0.033 | givinostat -0.046 | barasertib 0.112 | [8] 0.065 | [12] -0.08 | epoxomicin 0.116 | [3] 0.015 | rosiglitazone 0.081 | [5] 0.085

HSPBAP1 (UniProt Q96EW2)
inactive: [2] 0.03 | vemurafenib -0.005 | givinostat -0.116 | [3] -0.051 | [9] 0.02

HNRNPD (UniProt D6RF44)
inactive: givinostat 0.05 | [3] -0.039

HNRNPU isoform 2 (UniProt Q00839)
inactive: [10] -0.002 | [11] 0.151 | volasertib 0.007 | [5] 0.217

HLA-A isoform 2 (UniProt P04439)
inactive: [5] 0.071

HOXB4 (UniProt P17483)
inactive: Nexturastat A 0.063 | [12] 0.144 | epoxomicin -0.029

HUWE1 isoform 2 (UniProt Q7Z6Z7)
inactive: [13] 0.076 | givinostat -0.029 | [3] -0.058 | [5] -0.001

ICE2 (UniProt Q659A1)
inactive: Nexturastat A 0.134 | vemurafenib -0.17 | givinostat 0.117 | barasertib -0.038 | epoxomicin -0.173 | [3] 0.131 | [4] 0.19 | [9] 0.051 | rosiglitazone 0.036 | [6] -0.22

HMBS (UniProt F5H226)
inactive: [13] -0.02 | [2] -0.165 | vemurafenib -0.118 | [7] 0.086 | barasertib -0.049 | [4] 0.193 | [9] -0.026 | rosiglitazone 0.77 | [6] -0.085

HUWE1, A0A087X1S3
inactive: [13] 0.024 | [2] -0.086 | Nexturastat A 0.04 | givinostat 0.079 | barasertib -0.058 | [8] -0.075 | epoxomicin -0.072 | [3] -0.178 | [4] 0.011 | rosiglitazone 0.001 | [5] 0.095 | [6] -0.078

2 neighbouring entries from above, for reference:
ICE2 (UniProt Q659A1)
inactive: Nexturastat A 0.134 | vemurafenib -0.17 | givinostat 0.117 | barasertib -0.038 | epoxomicin -0.173 | [3] 0.131 | [4] 0.19 | [9] 0.051 | rosiglitazone 0.036 | [6] -0.22

HMBS (UniProt F5H226)
inactive: [13] -0.02 | [2] -0.165 | vemurafenib -0.118 | [7] 0.086 | barasertib -0.049 | [4] 0.193 | [9] -0.026 | rosiglitazone 0.77 | [6] -0.085

Going on with the list:

HTD2 (UniProt P86397)
inactive: [13] 0.007 | [10] 0.006 | Nexturastat A -0.253 | vemurafenib -0.008 | [11] 0.006 | [7] -0.11 | givinostat -0.033 | barasertib 0.073 | [8] 0.038 | volasertib 0.011 | epoxomicin 0.169 | [3] 0.064 | [4] -0.21 | [9] -0.01 | rosiglitazone 0.082 | [6] 0.063

HIF1AN (UniProt Q9NWT6)
inactive: [1] 0.014 | [10] -0.026 | [2] 0.032 | Nexturastat A 0.181 | vemurafenib 0.025 | [11] -0.105 | [7] 0.092 | givinostat -0.033 | barasertib 0.048 | [8] -0.041 | volasertib -0.016 | [12] 0.04 | epoxomicin 0.088 | [3] 0.022 | [4] 0.097 | [9] -0.053 | rosiglitazone 0.011 | [5] -0.097 | [6] -0.036

HMG20B (UniProt Q9P0W2)
inactive: [2] -0.192 | barasertib -0.156 | [12] -0.029 | [4] -0.132 | rosiglitazone 0.126 | [6] -0.026

HPF1 (UniProt Q9NWY4)
inactive: Nexturastat A 0.052 | epoxomicin -0.017 | [5] 0.125

HMGXB4 (UniProt Q9UGU5)
inactive: [10] 0.008 | Nexturastat A 0.192 | [11] 0.018 | [8] 0.01 | volasertib 0.035 | epoxomicin -0.083

HNMT (UniProt P50135)
inactive: givinostat -0.18 | [3] -0.29

ID1 (UniProt P41134)
inactive: [1] -0.121 | Nexturastat A 0.351 | [7] -0.344 | givinostat 0.276 | barasertib -0.002 | [12] 0.059 | epoxomicin 0.432 | [3] -0.016 | rosiglitazone -0.136 | [5] 0.103

HTR1F (UniProt P30939)
inactive: [2] 0.069 | givinostat 0.028 | [3] 0.028 | [4] -0.132 | [6] 0.017

HSBP1 (UniProt O75506)
inactive: barasertib 0.155 | [8] -0.124 | [12] 0.47 | rosiglitazone 0.241

HOOK1 (UniProt Q9UJC3)
inactive: [10] 0 | Nexturastat A -0.011 | vemurafenib 0.008 | [11] 0.001 | [8] 0.002 | volasertib -0.299 | epoxomicin -0.022 | [9] -0.071 | [5] 0.135

HYOU1, A0A494C039
inactive: [13] -0.024 | Nexturastat A 0.262 | vemurafenib 0.466 | [7] 0.061 | givinostat 0.083 | barasertib 0.017 | [8] 0.038 | [12] -0.012 | epoxomicin 0.044 | [3] -0.013 | [4] -0.153 | [9] -0.019 | rosiglitazone 0.028 | [5] 0.106 | [6] 0.079
